Data set [1] can be described thus: general procedure: Fmoc solid-phase peptide synthesis; 2-chlorotrityl chloride resin loaded with Fmoc-Gly-OH (0.55 mmol/g); HATU/DIPEA; PyBop/DIPEA for cyclisation. To be noted: for step yield: late stage modification step; for cyclisation yield: cyclisation step; for conjugation yield: conjugation step.
Another data set is described as follows: peptide synthesis. As to conditions: for step yield: late stage modification step.

For some of these results: HELM strings list residues between dots; [ac] is acetyl, [am] amide, other brackets name non-standard units. Ends that are not written are not given here. * marks the point of attachment. Boc = CC(C)(C)OC(=O)*

With “PEPTIDE1{A.A.[K_BzA].P.G.A.A.[K_BzA].P.G}$PEPTIDE1,PEPTIDE1,1:R1-10:R2$$$V2.0”, the step yield in data set [1] worked out at 42%. With “RAFT-(methyl 8-(hydroxyamino)-8-oxooctanoate)4 [MuH2120]”, the step yield in data set [1] (run 1) stood at 12%. Regarding “H2N-K(N3)-A-K(N3)-P-G-K(N3)-A-K(N3)-P-G-H”, the cyclisation yield in data set [1] is 60%. In data set [1], H-AAK(Boc)PGAAK(Boc)PGH had a cyclisation yield of 71%. “RAFT-( N^1-(4-(2-amino-2-oxoethyl)phenyl)-N^8-(trityloxy)octane diamide)2”: the conjugation yield in data set [1] stood at 59%. For “RAFT-(N-(2-aminophenyl)-4-(2-(((1-X-1H-1,2,3-triazol-4-yl)methyl)amino)-2-oxoethyl) benzamide)4”, in “peptide synthesis”, the step yield is 87%. The substance “RAFT-(tert-butyl(2-(4-(2-(((1-X-1H-1,2,3-triazol-4-yl)methyl)amino)-2-oxoethyl) benzamido)phenyl)carbamate)4” registered a conjugation yield in data set [1] of 36%. “RAFT-(4-(2-((11-X-1-oxoundecyl)amino)-2-oxoethyl)-N-(2-aminophenyl)benzamide)4” came in with a conjugation yield in data set [1] of 15%. In data set [1], “RAFT-(tert-butyl(2-(4-(2-((5-X-5-oxopentyl)amino)-2-oxoethyl)benzamido)phenyl) carbamate)4” yielded a conjugation yield of 64%. “RAFT-(5-(1-X-1H-1,2,3-triazol-4-yl)-N-(trityloxy)pentanamide)4”: the step yield in data set [1] was 51%. As for “RAFT-(methyl 8-(hydroxyamino)-8-oxooctanoate)4 [MuH2121]”, the step yield in data set [1] (run 1) was found to be 14%.

Substance “RAFT-(4-(2-X-2-oxoethyl)-N-(2-aminophenyl)benzamide)4” yielded a conjugation yield in the data set “peptide synthesis” (conjugation step) of 40%. As for “H2N-K(Boc)-A-K(Boc)-P-G-K(Boc)-A-K(Boc)-P-G-H”, in data set [1], the cyclisation yield came out at 40%. The substance “RAFT-(N-hydroxy-5-(1-methyl-1H-1,2,3-triazol-4-yl)pentanamide)4” had a step yield in data set [1] of 33%. In the data set “peptide synthesis”, “RAFT-(4-(2-((5-X-5-oxopentyl)amino)-2-oxoethyl)-N-(2-aminophenyl)benzamide)4” yielded a step yield of 13%. “RAFT-(tert-butyl (2-(4-(2-X-2-oxoethyl)benzamido)phenyl)carbamate)2”: the conjugation yield in data set [1] amounted to 75%.

These data come from patent publication EP4574212A1 (Centre National de la Recherche Scientifique, priority 2023, dated 2025).
